Measured values reported in publication PMC4854477.

By UniProt entry, the sequences of proteins in these tests, tags left out. Where a name states a change or a piece, a line headed by the entry shows the natural chain unless it says otherwise.
UniProt Q92667: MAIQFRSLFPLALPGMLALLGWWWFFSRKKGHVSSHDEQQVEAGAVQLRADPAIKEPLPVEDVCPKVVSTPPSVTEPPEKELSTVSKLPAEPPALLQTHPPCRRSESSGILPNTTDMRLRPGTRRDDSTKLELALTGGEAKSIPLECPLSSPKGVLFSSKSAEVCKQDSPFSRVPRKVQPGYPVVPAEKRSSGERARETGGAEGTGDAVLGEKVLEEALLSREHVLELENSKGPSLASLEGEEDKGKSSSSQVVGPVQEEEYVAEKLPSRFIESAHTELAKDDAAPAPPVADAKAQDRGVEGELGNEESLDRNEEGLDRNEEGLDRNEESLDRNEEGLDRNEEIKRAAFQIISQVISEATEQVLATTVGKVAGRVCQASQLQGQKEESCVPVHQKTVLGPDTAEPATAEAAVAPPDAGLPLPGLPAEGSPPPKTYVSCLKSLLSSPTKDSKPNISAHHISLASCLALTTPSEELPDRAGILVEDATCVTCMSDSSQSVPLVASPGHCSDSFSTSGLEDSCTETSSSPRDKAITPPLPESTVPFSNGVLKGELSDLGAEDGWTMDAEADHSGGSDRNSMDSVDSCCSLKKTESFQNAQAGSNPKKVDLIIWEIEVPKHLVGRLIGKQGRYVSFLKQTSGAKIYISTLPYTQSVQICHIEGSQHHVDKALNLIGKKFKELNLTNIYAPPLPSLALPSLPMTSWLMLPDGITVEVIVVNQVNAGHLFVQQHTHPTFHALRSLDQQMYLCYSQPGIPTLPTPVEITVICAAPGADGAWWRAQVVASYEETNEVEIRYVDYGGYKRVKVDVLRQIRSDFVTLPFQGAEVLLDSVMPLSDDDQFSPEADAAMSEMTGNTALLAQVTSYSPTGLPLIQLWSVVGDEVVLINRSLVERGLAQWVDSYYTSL
UniProt P13861: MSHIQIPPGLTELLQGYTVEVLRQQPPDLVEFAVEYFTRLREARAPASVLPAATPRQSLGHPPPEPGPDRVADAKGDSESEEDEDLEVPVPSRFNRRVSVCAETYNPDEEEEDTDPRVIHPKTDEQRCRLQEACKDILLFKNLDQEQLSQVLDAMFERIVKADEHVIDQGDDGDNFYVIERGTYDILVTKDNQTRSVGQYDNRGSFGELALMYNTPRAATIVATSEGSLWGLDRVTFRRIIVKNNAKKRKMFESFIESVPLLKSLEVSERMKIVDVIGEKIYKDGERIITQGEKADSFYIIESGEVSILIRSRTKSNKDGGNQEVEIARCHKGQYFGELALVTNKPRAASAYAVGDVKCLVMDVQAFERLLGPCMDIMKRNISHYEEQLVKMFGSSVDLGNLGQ

Target: AKAP1Δ, EGFP fusion (UniProt Q92667)
Assay: co-IP; HT1080 cells co-transfected with PKA subunits and EGFP fusions of AKAP1 constructs; immunoprecipitation with an anti-EGFP antibody; co-precipitating PKA detected by western blot

WT RIIα, transfected (from UniProt P13861 1-404)
binding: no binding

These are yes or no findings as the source states them, for the method shown. In cells and extracts the contact can be indirect.
